According to US20240117005A1 (THE COUNCIL OF THE QUEENSLAND INSTITUTE OF MEDICAL RESEARCH, priority 2021, published 2024):
End groups of sequences in plain letters are not given here.

Experiment: peptide synthesis
Conditions: whole synthesis, head-to-tail ring, sequence written open

outcome, Synthesis failed.:
GAAGAGLTFIFRLRKGRMMDVKKAG
LTFIFRLRKGRMMDVKKAG
LTFIFRLRKGRMMDVKKAGGAAG
